Laboratory results reported in article PMC7842056.
Results are given in words; binding and its absence hold for the method and conditions named. In cells and extracts the contact can be indirect. Some entries that bind do so weakly or less than the wild type.

Amino acid sequences for entries named in this document (tags omitted). Residues count along the entry.
UniProt P23818, residues 19-907: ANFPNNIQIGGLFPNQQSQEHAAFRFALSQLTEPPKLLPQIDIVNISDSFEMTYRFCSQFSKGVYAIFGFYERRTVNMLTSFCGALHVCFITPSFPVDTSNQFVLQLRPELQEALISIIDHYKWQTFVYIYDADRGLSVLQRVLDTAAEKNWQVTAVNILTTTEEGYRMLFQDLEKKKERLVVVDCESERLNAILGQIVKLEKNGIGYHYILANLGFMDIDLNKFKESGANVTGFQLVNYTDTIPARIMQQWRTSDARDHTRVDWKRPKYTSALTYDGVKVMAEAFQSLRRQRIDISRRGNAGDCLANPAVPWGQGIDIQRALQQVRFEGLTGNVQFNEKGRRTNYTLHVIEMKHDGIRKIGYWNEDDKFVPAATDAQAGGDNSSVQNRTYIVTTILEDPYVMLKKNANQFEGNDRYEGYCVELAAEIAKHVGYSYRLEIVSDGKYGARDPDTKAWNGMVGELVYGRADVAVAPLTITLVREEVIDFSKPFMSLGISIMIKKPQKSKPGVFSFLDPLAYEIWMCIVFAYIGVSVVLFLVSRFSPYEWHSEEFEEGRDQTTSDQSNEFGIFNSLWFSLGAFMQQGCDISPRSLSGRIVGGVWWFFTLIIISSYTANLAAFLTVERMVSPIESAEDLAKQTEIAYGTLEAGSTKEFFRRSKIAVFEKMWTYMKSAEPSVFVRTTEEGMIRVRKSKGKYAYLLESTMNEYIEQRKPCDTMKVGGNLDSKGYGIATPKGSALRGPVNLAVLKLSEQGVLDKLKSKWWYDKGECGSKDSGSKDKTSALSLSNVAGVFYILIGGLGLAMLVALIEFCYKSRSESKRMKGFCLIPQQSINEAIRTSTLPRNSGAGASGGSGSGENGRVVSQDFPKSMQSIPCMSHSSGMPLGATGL

Target: GluA1 (UniProt P23818)
Test: co-IP; hippocampal neurones co-transfected with pTT5-Stargazin-His and pTT5-GluA1-Flag, 48 h; Aβ1-42-induced cells; lysates incubated with Flag-tagged antibody at 4 °C overnight, Protein A/G Plus-Agarose 6 h, washed with PBS; blot with GluA1 and Stargazin antibodies; caspase-1 said to inhibit the interaction

binding: binds
B1: Stargazin (protein, UniProt O88602 1-323)
chain: MGLFDRGVQMLLTTVGAFAAFSLMTIAVGTDYWLYSRGVCKTKSVSENETSKKNEEVMTHSGLWRTCCLEGNFKGLCKQIDHFPEDADYEADTAEYFLRAVRASSIFPILSVILLFMGGLCIAASEFYKTRHNIILSAGIFFVSAGLSNIIGIIVYISANAGDPSKSDSKKNSYSYGWSFYFGALSFIIAEMVGVLAVHMFIDRHKQLRATARATDYLQASAITRIPSYRYRYQRRSRSSSRSTEPSHSRDASPVGVKGFNTLPSTEISMYTLSRDPLKAATTPTATYNSDRDNSFLQVHNCIQKDSKDSLHANTANRRTTPV
